Laboratory results published in patent US8124655B2, “Use of LR-90 and LR-102 to overcome insulin resistance” (City of Hope, priority 2007, dated 2012).

Tested on: Zucker diabetic fatty (ZDF) rat
Experiment: Metabolic parameters of ZDF rats treated with LR-90 (Example 1)
Format: in vivo
Details: mean ± SEM
Method: As noted, previous studies have shown that LR-90, a new inhibitor of AGE formation, prevented the development of experimental type 1 diabetic nephropathy. In the present Example, the effects of LR-90 were examined in the Zucker diabetic fatty (ZDF) rat, a model of type 2 diabetes and metabolic syndrome, and the mechanisms by which it may protect against renal injury were investigated. In this Example, male ZDF rats were treated without or with LR-90 from age 13 to 40 weeks. Metabolic and kidney functions and renal histology were evaluated. AGE accumulation and the production of the receptor for AGE (AGER) were measured. Profibrotic growth factors, extracellular matrix proteins and intracellular signalling pathways associated with glomerular and tubular damage were also analysed. […]
All animal studies were carried out in compliance with policies outlined in The Guide for the Care and Handling of Laboratory Animals (NIH Publication No. 85-23) that have been approved by the City of Hope Animal Care Committee. […] Food, water intake, body weight and blood glucose levels were monitored periodically. Systolic blood pressure was measured by tail-cuff plethysmography (CODA2 Blood Pressure System; Kent Scientific, Torrington, Conn., USA). […] Plasma glucose, lipids and Nε-(carboxymethyl)lysine-AGE Plasma glucose was measured using a glucose analyzer (2300 STAT; YSI, Yellowsprings, Ohio, USA). […]

In the case of `CC(C)(Oc1ccc(NC(=O)Nc2ccc(Cc3ccc(NC(=O)Nc4ccc(OC(C)(C)C(=O)O)cc4)c(Cl)c3)cc2Cl)cc1)C(=O)O` [LR-90, methylene bis[4,4′-(2-chlorophenylureidophenoxyisobutyric acid)]], the “Body Weight” value (LR-90 50 mg/l in drinking water from 13 to 40 weeks of age, at 40 weeks, n = 6) is reported as 347 ± 32 g and the “Heart Rate” value (LR-90 50 mg/l in drinking water, at 40 weeks of age) is reported as 330 ± 12 beats/min.
